From PubChem BioAssay AID292 (DTP/NCI, 2004)
The list shows only some results of the screen, not a fair sample: it gathers tests that were run many times, whatever their T/C, doses with no T/C, and many T/C values between a quarter and a half above the control. Other doses and runs of a compound stand elsewhere. T/C is the treated group as % of the vehicle group. Some doses have a count of surviving animals in place of a T/C: the source holds a T/C of zero for them, seemingly a mark for toxic or unscored doses. Some doses without a T/C left all or most animals alive at the check, yet need not have been tolerated: survival well below the control is almost never listed, so the zero probably covers shortened survival too. Counts of survivors are from the toxicity check (mostly the fifth day) where no day follows; animals may have died later. Schedules are NCI's codes, read here as Q, the interval in days (D) or hours (H), X, the number of doses. For survival time, this PubChem deposit counts one and a half times the control or more as active, and values a quarter to a half above the control carry no call in these data; other NCI protocols may use other cut-offs. Brackets with × say how often a value occurs here. Some doses were run more than once; the results are listed from low to high. Some T/C values carry the count of animals alive at the toxicity check (mostly the fifth day); where none is given, no animal had died by that day.

System: B6C3F1 mice, ip Sarcoma M5076, median survival T/C
Test: NCI In Vivo Anticancer Drug Screen. Data for tumor model Sarcoma M5076 (intraperitoneal) in B6C3F1 mice
Conditions: T/C endpoint: median survival time, higher T/C = longer survival
Procedure, shortened: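 Antitumour effect is judged in tumour-bearing mice by comparing survival after compound dosing against vehicle-only animals, reported as T/C.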

[1] = dose: 1.0 mg/kg/injection, schedule: Q04DX004 (ip), vehicle: Klucel (hydroxypropylcellulose) (HPC)

## CO[C@H](/C(C)=C/C=C/C(C)=C/c1coc(C)n1)[C@H](C)[C@H]1C[C@@H](O)[C@@]2(C)O[C@H]2/C=C/[C@@H](C)[C@@H]2C[C@@H](CC(=O)O2)C[C@H]2O[C@@H]2C(=O)O1
dose: 0.06 mg/kg/injection, schedule: Q01DX013 (ip), vehicle: other
  T/C: 139 % of control
dose: 0.06 mg/kg/injection, schedule: Q03HX012 (ip), vehicle: other
  T/C: 129 % of control
dose: 0.09 mg/kg/injection, schedule: Q01DX013 (ip), vehicle: other
  T/C: 143 % of control
dose: 0.09 mg/kg/injection, schedule: Q03HX012 (ip), vehicle: other
  T/C: 133 % of control
dose: 0.13 mg/kg/injection, schedule: Q01DX013 (ip), vehicle: other
  T/C: 134 % of control [9 of 10 alive on day 14]
dose: 0.13 mg/kg/injection, schedule: Q03HX012 (ip), vehicle: other
  T/C: 139 % of control
dose: 0.13 mg/kg/injection, schedule: Q04DX004 (ip), vehicle: other
  T/C: 125 % of control
dose: 0.2 mg/kg/injection, schedule: Q03HX012 (ip), vehicle: other
  T/C: 144 % of control
dose: 0.2 mg/kg/injection, schedule: Q04DX004 (ip), vehicle: Klucel (hydroxypropylcellulose) (HPC)
  T/C: 125 % of control (2×)
dose: 0.3 mg/kg/injection, schedule: Q03HX012 (ip), vehicle: other
  T/C: 149 % of control
dose: 0.3 mg/kg/injection, schedule: Q04DX004 (ip), vehicle: Klucel (hydroxypropylcellulose) (HPC)
  T/C: 130 % of control
dose: 0.3 mg/kg/injection, schedule: Q04DX004 (ip), vehicle: other
  T/C: 130 and 133 % of control
dose: 0.44 mg/kg/injection, schedule: Q03HX012 (ip), vehicle: other
  T/C: 143 % of control
dose: 0.44 mg/kg/injection, schedule: Q04DX004 (ip), vehicle: Klucel (hydroxypropylcellulose) (HPC)
  T/C: 130 (2×) and 143 % of control
dose: 0.44 mg/kg/injection, schedule: Q04DX004 (ip), vehicle: other
  T/C: 129, 133, 140 % of control
dose: 0.45 mg/kg/injection, schedule: Q01DX005 (sc), vehicle: other
  T/C: 127 % of control
dose: 0.5 mg/kg/injection, schedule: Q04DX004 (ip), vehicle: Klucel (hydroxypropylcellulose) (HPC)
  T/C: 147 % of control
dose: 0.67 mg/kg/injection, schedule: Q01DX005 (sc), vehicle: other
  survivor count: 3 of 10 on day 14
dose: 0.67 mg/kg/injection, schedule: Q04DX004 (ip), vehicle: Klucel (hydroxypropylcellulose) (HPC)
  T/C: 142 and 147 % of control
dose: 0.67 mg/kg/injection, schedule: Q04DX004 (ip), vehicle: other
  T/C: 134, 139, 140 % of control
dose: 0.67 mg/kg/injection, schedule: Q04DX004 (iv), vehicle: other
  T/C: 127 % of control
dose: 1.0 mg/kg/injection, schedule: Q01DX005 (sc), vehicle: other
  survivor count: 4 of 10 on day 14
[1]
  T/C: 138, 150, 156 % of control
  survivor count: 7 of 10 on day 14
dose: 1.0 mg/kg/injection, schedule: Q04DX004 (ip), vehicle: other
  T/C: 132 and 139 % of control
dose: 1.0 mg/kg/injection, schedule: Q04DX004 (iv), vehicle: other
  T/C: 127 % of control [9 of 10 alive on day 14]
dose: 1.5 mg/kg/injection, schedule: Q04DX004 (ip), vehicle: other
  T/C: 137 % of control
dose: 2.0 mg/kg/injection, schedule: Q04DX004 (ip), vehicle: Klucel (hydroxypropylcellulose) (HPC)
  survivor count: 2 of 10 on day 14
dose: 187.5 micrograms/kg/injection, schedule: Q03HX008 (sc), vehicle: other
  T/C: 127 % of control [9 of 10 alive on day 14]

## COc1ccc(O)cc1
dose: 400.0 mg/kg/injection, schedule: Q04DX004 (ip), vehicle: saline with Tween-80
  survivor count: 3 of 10 on day 14

## CN1C(=O)C(=O)N(Cc2ccc(CN3C(=O)C(=O)N(C)C3=O)cc2)C1=O
dose: 800.0 mg/kg/injection, schedule: Q04DX004 (ip), vehicle: Klucel (hydroxypropylcellulose) (HPC)
  survivor count: 8 of 10 on day 14
